Results published in doi:10.1101/748236.
No constants are given. Whether binding was seen depends on the method and setting. In cells and extracts the contact can be indirect. Some binding calls cover weakened binding; strength is not graded here. Where a sequence is shown, tags or fusion partners need not be part of it.

Amino acid sequences for entries named in this document (tags omitted).
UniProt P25440: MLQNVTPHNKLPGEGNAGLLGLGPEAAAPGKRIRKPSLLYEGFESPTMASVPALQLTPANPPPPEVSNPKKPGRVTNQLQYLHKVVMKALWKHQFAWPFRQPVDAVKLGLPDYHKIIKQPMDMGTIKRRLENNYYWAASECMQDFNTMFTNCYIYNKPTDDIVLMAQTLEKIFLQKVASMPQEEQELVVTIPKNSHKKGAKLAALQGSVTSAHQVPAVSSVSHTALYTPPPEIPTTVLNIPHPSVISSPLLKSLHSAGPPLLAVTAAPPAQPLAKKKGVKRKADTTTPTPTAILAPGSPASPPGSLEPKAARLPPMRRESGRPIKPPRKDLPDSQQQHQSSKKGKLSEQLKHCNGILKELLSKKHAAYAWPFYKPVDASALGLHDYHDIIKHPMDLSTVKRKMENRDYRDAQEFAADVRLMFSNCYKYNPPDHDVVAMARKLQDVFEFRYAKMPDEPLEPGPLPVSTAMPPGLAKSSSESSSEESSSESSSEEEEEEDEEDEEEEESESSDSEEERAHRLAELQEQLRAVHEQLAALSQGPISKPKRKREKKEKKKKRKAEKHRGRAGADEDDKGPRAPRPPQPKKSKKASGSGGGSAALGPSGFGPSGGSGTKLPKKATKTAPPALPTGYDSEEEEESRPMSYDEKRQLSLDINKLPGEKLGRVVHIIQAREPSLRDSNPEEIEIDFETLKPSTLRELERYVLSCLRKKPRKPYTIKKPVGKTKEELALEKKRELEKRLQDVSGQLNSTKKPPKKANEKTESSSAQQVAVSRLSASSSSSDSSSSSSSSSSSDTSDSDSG

Biological target: T1, FLAG-SREBP2Nt (SREBP2 N-terminal transcriptionally active domain, amino acids 1-482) (UniProt Q12772)
T1 sequence: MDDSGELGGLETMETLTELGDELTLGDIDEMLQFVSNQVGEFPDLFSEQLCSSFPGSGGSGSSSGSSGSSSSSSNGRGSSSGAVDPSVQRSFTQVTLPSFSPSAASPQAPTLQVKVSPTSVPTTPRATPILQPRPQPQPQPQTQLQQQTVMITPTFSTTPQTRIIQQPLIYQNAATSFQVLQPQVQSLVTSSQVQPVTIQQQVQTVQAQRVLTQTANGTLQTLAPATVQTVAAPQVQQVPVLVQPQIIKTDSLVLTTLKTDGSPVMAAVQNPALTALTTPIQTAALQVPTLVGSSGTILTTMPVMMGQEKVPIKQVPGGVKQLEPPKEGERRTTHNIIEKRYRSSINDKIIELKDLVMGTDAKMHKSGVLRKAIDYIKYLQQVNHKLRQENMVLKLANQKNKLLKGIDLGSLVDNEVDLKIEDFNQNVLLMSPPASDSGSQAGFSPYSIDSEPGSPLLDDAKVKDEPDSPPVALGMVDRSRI
Assay: co-IP

binding: binds
Substance: BRD2 (from UniProt P25440 1-801)
